# Source: US9056922B2 (HOWARD FLOREY INSTITUTE OF EX[…] MEDICINE, priority 2007, dated 2015)
# Assay: general procedure: Fmoc solid-phase peptide synthesis in flow; Fmoc-Cys(Acm)-NovaSyn TGT (A-chain); Fmoc-Ser-PAC-PEG-PS (B-chain); HBTU
substance,measurement,setting,value
[Cys^24(Acm)]A-chain/[Cys^23(Acm)] B-chain,conjugation yield,conjugation step,10.5%
"[Cys^11(Acm), Cys^24(But)]-A-chain",oxidative folding yield,"oxidative folding step, on crude A-chain",27%
"[Cys^11(Pyr), Cys^24(Acm)]A-Chain",step yield,late stage modification step,86.8%
